{"source": "the supplement of paper PMC5393889", "note": "The other results are listed elsewhere or left out."}
{"test_system": "Caenorhabditis elegans N2", "assay": "aldicarb interaction hit call (worm growth perturbed in combination with 10 uM aldicarb in both replicates, no effect as single agent) (binary (1 = interacts)); higher = interacts with aldicarb (growth perturbed)", "settings": "first compound 1.5 µM; aldicarb concentration 10 µM; 6 days; 20 °C"}
{"smiles": "CC(C)COc1ccc(-c2nc(-c3ccncc3)no2)cc1", "note": "[wact-561] + CNC(=O)O/N=C/C(C)(C)SC [aldicarb]", "aldicarb interaction hit call": "inactive: 0"}
{"smiles": "O=C(Nc1ccc(CN2CCOCC2)cc1)c1ccc(Cl)c(Cl)c1", "note": "[wact-499] + CNC(=O)O/N=C/C(C)(C)SC [aldicarb]", "aldicarb interaction hit call": "inactive: 0"}
{"smiles": "Ic1ccc(OCCSc2ncccn2)cc1", "note": "[wact-16] + CNC(=O)O/N=C/C(C)(C)SC [aldicarb]", "aldicarb interaction hit call": "inactive: 0"}
{"smiles": "c1coc(-c2nc(-c3cccs3)cs2)c1", "note": "[wact-203] + CNC(=O)O/N=C/C(C)(C)SC [aldicarb]", "aldicarb interaction hit call": "inactive: 0"}
{"smiles": "CCCCOc1ccc(-c2ncc(N)cn2)cc1", "note": "[wact-412] + CNC(=O)O/N=C/C(C)(C)SC [aldicarb]", "aldicarb interaction hit call": "inactive: 0"}
{"smiles": "COCC1CCN(Cc2nc(-c3ccc(-c4ccccc4)cc3)oc2C)CC1", "note": "[wact-253] + CNC(=O)O/N=C/C(C)(C)SC [aldicarb]", "aldicarb interaction hit call": "inactive: 0"}
{"smiles": "COc1ccccc1C(=O)NCCC1=CCCCC1", "note": "[wact-496] + CNC(=O)O/N=C/C(C)(C)SC [aldicarb]", "aldicarb interaction hit call": "inactive: 0"}
{"smiles": "CC(C)(C)c1ccc(-c2noc(-c3cccnc3)n2)cc1", "note": "[wact-133] + CNC(=O)O/N=C/C(C)(C)SC [aldicarb]", "aldicarb interaction hit call": "inactive: 0"}
{"smiles": "CCC(=O)N1CCN(c2ccc(NC(=O)c3cc4ccccc4o3)cc2Cl)CC1", "note": "[wact-134] + CNC(=O)O/N=C/C(C)(C)SC [aldicarb]", "aldicarb interaction hit call": "active: 1"}
{"smiles": "Cc1oc(-c2ccc3ccccc3c2)nc1CN(C)CC(C)C", "note": "[wact-305] + CNC(=O)O/N=C/C(C)(C)SC [aldicarb]", "aldicarb interaction hit call": "inactive: 0"}
{"smiles": "Cc1ccc(/C(N)=N/OC(=O)c2ccccc2)cc1", "note": "[wact-454] + CNC(=O)O/N=C/C(C)(C)SC [aldicarb]", "aldicarb interaction hit call": "inactive: 0"}
{"smiles": "COc1ccc(-c2n[nH]cc2CNC(C)c2ccc(Cl)cc2)c(F)c1", "note": "(stereo not drawn) [wact-255] + CNC(=O)O/N=C/C(C)(C)SC [aldicarb]", "aldicarb interaction hit call": "inactive: 0"}
{"smiles": "COCCCNCc1cn(-c2ccc(F)cc2)nc1-c1ccccc1Cl", "note": "[wact-261] + CNC(=O)O/N=C/C(C)(C)SC [aldicarb]", "aldicarb interaction hit call": "inactive: 0"}
{"smiles": "Cl.c1ccc(-c2ccc(OCCCN3CCOCC3)cc2)cc1", "note": "[wact-151] + CNC(=O)O/N=C/C(C)(C)SC [aldicarb]", "aldicarb interaction hit call": "inactive: 0"}
{"smiles": "Cl.Clc1ccc(-c2ccc(CNC3CC3)o2)c(Cl)c1", "note": "[wact-614] + CNC(=O)O/N=C/C(C)(C)SC [aldicarb]", "aldicarb interaction hit call": "inactive: 0"}
{"smiles": "CC(C)CN1CCC(CN(C)Cc2nc(-c3ccc(C(F)(F)F)cc3)no2)CC1", "note": "[wact-237] + CNC(=O)O/N=C/C(C)(C)SC [aldicarb]", "aldicarb interaction hit call": "inactive: 0"}
{"smiles": "Cc1ccc(-c2cc(-c3cccc(F)c3)[nH]n2)c(O)c1", "note": "[wact-446] + CNC(=O)O/N=C/C(C)(C)SC [aldicarb]", "aldicarb interaction hit call": "active: 1"}
{"smiles": "CCSc1ncnc2c1cnn2-c1ccccc1", "note": "[wact-142] + CNC(=O)O/N=C/C(C)(C)SC [aldicarb]", "aldicarb interaction hit call": "inactive: 0"}
{"smiles": "CCCC(=O)c1ccc(N2CCC(C)CC2)c(F)c1", "note": "[wact-447] + CNC(=O)O/N=C/C(C)(C)SC [aldicarb]", "aldicarb interaction hit call": "inactive: 0"}
{"smiles": "CN(CC1CCN(CCc2ccc(F)cc2)CC1)C(=O)c1cc(-c2ccccc2)on1", "note": "[wact-247] + CNC(=O)O/N=C/C(C)(C)SC [aldicarb]", "aldicarb interaction hit call": "inactive: 0"}
{"smiles": "O=C(NC(=S)Nc1ccc(Cl)c(Cl)c1)c1ccccc1I", "note": "[wact-369] + CNC(=O)O/N=C/C(C)(C)SC [aldicarb]", "aldicarb interaction hit call": "inactive: 0"}
{"smiles": "COc1ccc(OC)c(CN(C)CC2CCN(CCc3cccc(F)c3)CC2)c1", "note": "[wact-326] + CNC(=O)O/N=C/C(C)(C)SC [aldicarb]", "aldicarb interaction hit call": "inactive: 0"}
{"smiles": "Cl.Fc1ccccc1-c1ccc(CNCc2cccs2)o1", "note": "[wact-188] + CNC(=O)O/N=C/C(C)(C)SC [aldicarb]", "aldicarb interaction hit call": "inactive: 0"}
{"smiles": "CN(CC1CCN(CCc2ccc(Cl)cc2)CC1)C(=O)c1cc(F)cc(F)c1", "note": "[wact-232] + CNC(=O)O/N=C/C(C)(C)SC [aldicarb]", "aldicarb interaction hit call": "inactive: 0"}
{"smiles": "COc1cc(OC)c(OC)cc1/C=C/c1ccc2cccc(OC)c2n1", "note": "[wact-526] + CNC(=O)O/N=C/C(C)(C)SC [aldicarb]", "aldicarb interaction hit call": "inactive: 0"}
{"smiles": "CCn1ccnc1CN1CCCC(C(=O)c2ccc(-c3ccccc3)cc2)C1", "note": "(stereo not drawn) [wact-296] + CNC(=O)O/N=C/C(C)(C)SC [aldicarb]", "aldicarb interaction hit call": "inactive: 0"}
{"smiles": "COCCOC1CCN(Cc2cn(-c3ccc(C)cc3)nc2-c2ccc(F)cc2)CC1", "note": "[wact-318] + CNC(=O)O/N=C/C(C)(C)SC [aldicarb]", "aldicarb interaction hit call": "inactive: 0"}
{"smiles": "Clc1ccc(-c2cn3ccsc3n2)cc1", "note": "[wact-1] + CNC(=O)O/N=C/C(C)(C)SC [aldicarb]", "aldicarb interaction hit call": "inactive: 0"}
